These are yes or no findings as the source states them, for the method shown. In cells and extracts the contact can be indirect. Some results given as binding are weak or reduced against the parent protein; the word gives no strength. Tags and fused reporters may be left off the sequences shown.
Target: T1, Rho family GTPase 3 (Rnd3), Flag-tagged, expressed from adenovirus Ad-Rnd3-Flag (UniProt P61588)
T1 sequence: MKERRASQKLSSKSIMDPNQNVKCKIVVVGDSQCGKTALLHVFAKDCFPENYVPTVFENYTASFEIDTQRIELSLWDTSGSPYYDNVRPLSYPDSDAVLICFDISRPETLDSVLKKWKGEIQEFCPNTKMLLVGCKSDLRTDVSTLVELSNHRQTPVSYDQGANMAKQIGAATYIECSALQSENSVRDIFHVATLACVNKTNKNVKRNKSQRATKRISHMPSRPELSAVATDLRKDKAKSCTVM
Assay: co-IP; cardiac fibroblasts treated with Ad-Rnd3-Flag in conditioned medium (HG+PA); which protein was precipitated is not told in the text shown

The chains behind the UniProt entries cited, without tags or fusion partners.
UniProt P70335: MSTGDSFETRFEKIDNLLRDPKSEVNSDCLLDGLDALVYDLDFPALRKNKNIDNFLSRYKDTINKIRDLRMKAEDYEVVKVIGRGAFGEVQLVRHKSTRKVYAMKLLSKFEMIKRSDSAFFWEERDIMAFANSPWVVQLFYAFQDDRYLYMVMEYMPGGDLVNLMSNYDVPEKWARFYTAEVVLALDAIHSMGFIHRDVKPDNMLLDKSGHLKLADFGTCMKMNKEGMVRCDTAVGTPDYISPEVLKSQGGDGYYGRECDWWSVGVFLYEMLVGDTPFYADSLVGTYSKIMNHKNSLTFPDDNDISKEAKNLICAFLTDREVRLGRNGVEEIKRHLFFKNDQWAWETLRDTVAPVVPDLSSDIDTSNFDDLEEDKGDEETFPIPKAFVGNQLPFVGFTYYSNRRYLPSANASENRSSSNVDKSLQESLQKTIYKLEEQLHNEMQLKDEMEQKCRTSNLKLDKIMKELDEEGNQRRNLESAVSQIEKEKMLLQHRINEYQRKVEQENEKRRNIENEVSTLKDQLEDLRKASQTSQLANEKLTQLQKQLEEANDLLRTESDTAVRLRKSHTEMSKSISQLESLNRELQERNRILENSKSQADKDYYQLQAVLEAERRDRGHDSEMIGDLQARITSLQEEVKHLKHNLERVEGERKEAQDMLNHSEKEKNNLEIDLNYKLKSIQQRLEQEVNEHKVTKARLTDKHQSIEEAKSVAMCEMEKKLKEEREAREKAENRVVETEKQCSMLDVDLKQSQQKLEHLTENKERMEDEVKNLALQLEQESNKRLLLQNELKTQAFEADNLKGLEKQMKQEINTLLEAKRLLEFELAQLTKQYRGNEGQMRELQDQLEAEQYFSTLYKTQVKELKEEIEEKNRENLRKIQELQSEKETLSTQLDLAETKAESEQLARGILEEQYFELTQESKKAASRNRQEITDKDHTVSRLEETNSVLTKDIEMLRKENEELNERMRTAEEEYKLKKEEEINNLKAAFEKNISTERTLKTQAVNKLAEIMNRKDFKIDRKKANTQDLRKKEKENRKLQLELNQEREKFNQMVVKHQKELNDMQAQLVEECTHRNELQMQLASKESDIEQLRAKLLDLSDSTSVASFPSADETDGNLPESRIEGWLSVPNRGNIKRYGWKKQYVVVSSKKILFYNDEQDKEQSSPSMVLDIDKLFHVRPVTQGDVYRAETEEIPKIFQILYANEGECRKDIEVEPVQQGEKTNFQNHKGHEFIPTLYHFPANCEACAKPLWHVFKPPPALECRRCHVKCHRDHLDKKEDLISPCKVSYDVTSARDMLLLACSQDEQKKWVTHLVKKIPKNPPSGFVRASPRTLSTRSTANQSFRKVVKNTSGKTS

binding: binds
Substance: Rho-associated kinase 1 (ROCK1) (from UniProt P70335 1-1354) (enzyme)

Reference: PMC9691359
